Results on 3 substances are retold here after paper PMC6072501 (MedChemComm, 2017).

HELM strings list residues between dots; [ac] is acetyl, [am] amide, other brackets name non-standard units. The same purity stands for every peptide and may come from a single statement.

The series in a line: Fmoc solid-phase peptide synthesis; HBTU; PyAop for DTrp to NMePhe. The note with it: whole synthesis, 220 nm.
As for “PEPTIDE1{R.[dW].[NMePhe].[dW].L.M.[am]}$$$$V2.0”, the “final HPLC purity” value is over 95%.

Take “PEPTIDE1{[NMeDPhe].[dW].F.[DTrp(N-tert-prenyl)].L.[am]}$$$$V2.0”: the “final HPLC purity” value is recorded as over 95%.

In the case of “PEPTIDE1{[NMeDPhe].[dW].F.[dW].L.[am]}$$$$V2.0”, the “final HPLC purity” value was over 95%.
